# Screening data, single-dose tests

Data taken from ChEMBL document CHEMBL3988442, “University of Dundee, Small-Polar-MMV Screening Library” (2021).

T. brucei: 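Whole-parasite assay of Trypanosoma brucei over 72 hours; the read-out is not stated. Concentration: 30 µM. Direction is inferred from retests: higher values go with stronger inhibition. Values scatter widely below zero; nearly all retest evidence comes from the higher of the two concentrations used. About 64,000 compounds were tested under these conditions; 1.5% (about 940) showed 50% or more at least once.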
Leishmania in macrophages: 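Cell assay of Leishmania donovani living inside macrophages; the read-out is not stated. Concentration: 30 µM. The record gives no direction; compounds that gave an IC50 in retests scored well above the rest, so higher reads as stronger inhibition. About 69,000 compounds were tested under these conditions; 1.5% (about 1,000) showed 50% or more at least once.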
Toxoplasma: 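Assay of Toxoplasma gondii numbers, read through their beta-galactosidase reporter with a colour substrate. Compounds at 10 µM. Higher reads as fewer parasites (inferred from which compounds were picked for retests). Of about 67,000 compounds tested this way, about 260 (0.38%) reached 50% or more in at least one test.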

Each number is a percent effect as filed.
The controls that fix the scale are not given in the record; negative values are as filed.
Compounds were drawn at random from those tested, without regard to their results.

For CC1(c2ccc(Br)cc2)CC(=O)N(CCC(N)=O)C1=O (stereo not given) the result was T. brucei: -10%; Leishmania in macrophages: 17.53%; Toxoplasma: 16.67%.
For O=C(NC1CCCN(c2ccc(OC(F)F)cc2)C1)c1cnc[nH]1 (stereo not given) the result was T. brucei: -24.14%; Leishmania in macrophages: -2.024%; Toxoplasma: 1.789%.
For O=C(O)C(F)(F)F.[H][C@]12CN(Cc3csc(C)n3)C(=O)[C@@]1([H])CN(c1ncc(C)cn1)C2 the result was Leishmania in macrophages: -2.541%; Toxoplasma: -2.651%.
For O=C(Nc1ccccc1)N1CC(C(=O)N2CCCC2)C2(CCOCC2)C1 (stereo not given) the result was T. brucei: 23.72%; Leishmania in macrophages: 11.21%; Toxoplasma: -0.8824%.
For CC(C)(C)c1nc(CN(Cc2ccccc2F)C2CCCCC2)no1 the result was T. brucei: -31.75%; Leishmania in macrophages: 14.06%; Toxoplasma: -5.368%.
For CN(Cc1ccc(C(=O)Nc2sccc2C#N)cc1)Cc1ccno1 the result was T. brucei: -17.15%; Leishmania in macrophages: 18.89%; Toxoplasma: -9.079%.
For CN(C)S(=O)(=O)c1cccc(CNc2cc(CO)ccc2Cl)c1 the result was T. brucei: 18.15%; Leishmania in macrophages: 22.21%; Toxoplasma: 17.13%.
For CCc1c(C)nc2n(c1=O)CC(C(=O)NCc1cccs1)CS2 (stereo not given) the result was T. brucei: 5.582%; Leishmania in macrophages: 1.321%; Toxoplasma: -7.617%.
For [H][C@@]12CCN(Cc3ccc(C)o3)C[C@]1([H])OCCN(c1cccnc1)C2=O the result was Leishmania in macrophages: 20.75%; Toxoplasma: -10.74%.
For Cc1nsc(N2CCN(CC(=O)NCc3ccc(F)cc3)CC2)n1 the result was T. brucei: -17.93%; Leishmania in macrophages: -8.216%; Toxoplasma: -17.01%.
For CN(C)[C@@H]1CCN(c2ncc(F)cn2)[C@H]1Cc1ccncc1.O=C(O)C(F)(F)F.O=C(O)C(F)(F)F the result was T. brucei: 21.2%; Leishmania in macrophages: 15.68%; Toxoplasma: 2.094%.
For Cn1cnc2c1CCN(Cc1csc(-c3ccc(F)cc3)n1)C2 the result was T. brucei: 21.01%; Leishmania in macrophages: -7.994%; Toxoplasma: 17.76%.
For CC1CCN(Cc2ccc(CNC(=O)c3ccn(C)c(=O)c3)cc2)CC1 the result was Leishmania in macrophages: 29.12%; Toxoplasma: 18.95%.
For CN(C)c1cc(CNC(=O)CC2CCCCC2)ccn1 the result was T. brucei: -10.03%; Leishmania in macrophages: -12.83%; Toxoplasma: 6.25%.
For Cc1cc(N[C@@H](CO)c2ccccc2)n2nc(C)c(C)c2n1 the result was Leishmania in macrophages: -2.403%; Toxoplasma: -12.46%.
For CNC(=O)C1Cn2ccnc2C2(CCN(Cc3cccnc3)CC2)O1.O=C(O)C(F)(F)F.O=C(O)C(F)(F)F.O=C(O)C(F)(F)F (stereo not given) the result was Leishmania in macrophages: 27.78%; Toxoplasma: 1.237%.
For CC(C)c1nc(CN(C)C2CCN(CCn3cc(C#N)cn3)C2)no1 (stereo not given) the result was T. brucei: 7.141%; Leishmania in macrophages: 14.7%; Toxoplasma: -5.437%.
For COCCOc1ccc(NC(=O)C2CC(=O)N(CC3CC3)C2)cn1 (stereo not given) the result was T. brucei: -6.937%; Leishmania in macrophages: -3.929%; Toxoplasma: -29.65%.
For Cn1ncc(NCc2cccc(COC(C)(C)C)c2)c(Cl)c1=O the result was T. brucei: -20.93%; Leishmania in macrophages: 51.11%; Toxoplasma: 10.57%.
For O=C(CC1CCCCC1)N1CCC(c2ncc3c(n2)CCNC3)CC1 the result was T. brucei: 12.02%; Leishmania in macrophages: 10.47%; Toxoplasma: 20.18%.
For NS(=O)(=O)CC1CCN(c2ncccc2C(F)(F)F)CC1 the result was T. brucei: -21.16%; Leishmania in macrophages: 36.99%; Toxoplasma: -0.3509%.
For CSCC[C@H](NC(C)=O)c1nc(CC(C)C)n[nH]1 the result was T. brucei: -19.5%; Leishmania in macrophages: -1.278%; Toxoplasma: 2.497%.

Repeated from the top, 2 entries:

SMILES,T. brucei,Leishmania in macrophages,Toxoplasma
CC1(c2ccc(Br)cc2)CC(=O)N(CCC(N)=O)C1=O (stereo not given),-10%,17.53%,16.67%
O=C(NC1CCCN(c2ccc(OC(F)F)cc2)C1)c1cnc[nH]1 (stereo not given),-24.14%,-2.024%,1.789%